Test results published in patent US20140134183A1 (CELL MEDICA SWITZERLAND, published 2014).
No constants are given. Whether binding was seen depends on the method and setting. Some results given as binding are weak or reduced against the parent protein; the word gives no strength.

The chains behind the UniProt entries cited, without tags or fusion partners. Residues count along the entry.
UniProt P01584, residues 117-269: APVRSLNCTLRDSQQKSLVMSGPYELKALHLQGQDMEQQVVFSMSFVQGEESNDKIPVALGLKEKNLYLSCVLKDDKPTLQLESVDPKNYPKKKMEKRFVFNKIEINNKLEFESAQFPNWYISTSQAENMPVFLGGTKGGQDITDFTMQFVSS

Tests used:
[1] = biological target: T1, recombinant human IL-1 beta (human, UniProt P01584 117-269); experiment: ELISA, cleared E. coli lysate on coated rhIL-1 beta
Protocol: The resulting scFv mutants are expressed in 96-well format in 1 ml cultures in E. coli BL21 (DE3) (Novagen, USA, cat. no. 69450-3). […] Cells were lysed in lysis buffer (1 mM EDTA, 0.1 mg/ml lysozyme, PBS pH 7.2) in a 96-well format by freezing and subsequent thawing. Derived crude extracts were cleared by centrifugation. Supernatants were added to wells of a microtiterplate coated with 50 ng/ml of rhIL-1 beta (Peprotech) per well. After washing, bound scFvs are detected by ProteinL-HRP and binding to rhIL-1 beta quantified by BM Blue POD Substrate (Roche Applied Science).

[2] = biological target: T1, recombinant human IL-1 beta; experiment: ELISA, cleared E. coli lysate on coated rhIL-1 beta (FIG. 6)

B1: DLX2686 (scFv)
scFv: MEIVMTQSPSTLSASVGDRVTITCQASQSISSWLSWYQQKPGKAPKLLIYKASTLASGVPSRFSGSGSGTEFTLTISSLQPDDFATYYCQNAGGGVSIAFGQGTKLTVLGGGGGSGGGGSGGGGSGGGGSEVQLVESGGGLVQPGGSLRLSCTVSGFSLSSYAMSWVRQAPGKGLEWIGIIYDSASTYYASWAKGRFTISKDTSKNTLYLQMNSLRAEDTAVYFCARERQIFSGDMDGWGQGTTVTVSS
- binding [1]: binds
- binding [2]: binds
